Source: patent publication US9127303B2, “Method for detection of beta-D-glucuronidase activity in a sample” (Biosynth AG, priority 2011, dated 2015)

Assay: Broth in test tubes, sterile control (substrate without inoculum)
Design: key: positive (pink colour); negative (yellow colour)
Conditions: NB, TBB, 0.1 mM, 37° C., 16 hours

With `COC(=O)[C@H]1O[C@@H](Oc2ccc3nc4ccc(=O)cc-4oc3c2)[C@H](O)[C@@H](O)[C@@H]1O` [Resorufin-beta-D-glucuronic acid methyl ester] the “Result, colour scored visually” value was “negative”.
